According to article PMC9967848:
Results are given in words; binding and its absence hold for the method and conditions named. In cells and extracts the contact can be indirect. Some results given as binding are weak or reduced against the parent protein; the word gives no strength.

The chains behind the UniProt entries cited, without tags or fusion partners.
UniProt Q9P2J5: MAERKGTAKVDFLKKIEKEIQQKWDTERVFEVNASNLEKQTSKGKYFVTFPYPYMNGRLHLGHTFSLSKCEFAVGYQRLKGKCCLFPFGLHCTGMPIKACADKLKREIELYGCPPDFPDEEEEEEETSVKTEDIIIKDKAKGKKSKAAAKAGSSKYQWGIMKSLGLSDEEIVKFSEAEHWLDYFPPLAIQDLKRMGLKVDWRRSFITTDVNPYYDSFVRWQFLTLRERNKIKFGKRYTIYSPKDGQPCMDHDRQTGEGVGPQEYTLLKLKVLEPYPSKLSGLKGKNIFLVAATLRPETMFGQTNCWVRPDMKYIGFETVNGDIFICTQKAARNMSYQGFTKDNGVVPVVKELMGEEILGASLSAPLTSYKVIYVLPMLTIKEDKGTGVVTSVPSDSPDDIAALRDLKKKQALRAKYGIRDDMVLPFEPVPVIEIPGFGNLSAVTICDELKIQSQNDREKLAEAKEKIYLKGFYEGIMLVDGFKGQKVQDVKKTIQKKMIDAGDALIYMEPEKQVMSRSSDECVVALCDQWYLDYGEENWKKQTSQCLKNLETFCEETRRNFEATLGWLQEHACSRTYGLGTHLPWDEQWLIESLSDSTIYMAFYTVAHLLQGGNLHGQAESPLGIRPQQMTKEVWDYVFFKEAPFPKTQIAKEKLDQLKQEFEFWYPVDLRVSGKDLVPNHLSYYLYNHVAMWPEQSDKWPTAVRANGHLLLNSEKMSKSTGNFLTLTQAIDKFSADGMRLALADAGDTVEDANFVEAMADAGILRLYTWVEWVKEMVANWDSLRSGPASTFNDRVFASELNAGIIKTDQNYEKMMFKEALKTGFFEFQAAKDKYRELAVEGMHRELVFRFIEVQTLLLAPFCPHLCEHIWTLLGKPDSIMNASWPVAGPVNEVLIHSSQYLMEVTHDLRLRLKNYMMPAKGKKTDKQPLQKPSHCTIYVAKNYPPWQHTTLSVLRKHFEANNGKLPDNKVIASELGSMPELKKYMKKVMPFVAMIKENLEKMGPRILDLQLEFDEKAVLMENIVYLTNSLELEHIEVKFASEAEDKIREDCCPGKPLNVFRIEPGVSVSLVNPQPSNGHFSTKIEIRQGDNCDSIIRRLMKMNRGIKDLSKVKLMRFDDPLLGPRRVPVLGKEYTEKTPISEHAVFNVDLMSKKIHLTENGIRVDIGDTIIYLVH

B1: isoleucyl-tRNA synthetase (IARS), endogenous (enzyme, UniProt P41252 1-1262)
chain: MLQQVPENINFPAEEEKILEFWTEFNCFQECLKQSKHKPKFTFYDGPPFATGLPHYGHILAGTIKDIVTRYAHQSGFHVDRRFGWDCHGLPVEYEIDKTLGIRGPEDVAKMGITEYNNQCRAIVMRYSAEWKSTVSRLGRWIDFDNDYKTLYPQFMESVWWVFKQLYDKGLVYRGVKVMPFSTACNTPLSNFESHQNYKDVQDPSVFVTFPLEEDETVSLVAWTTTPWTLPSNLAVCVNPEMQYVKIKDVARGRLLILMEARLSALYKLESDYEILERFPGAYLKGKKYRPLFDYFLKCKENGAFTVLVDNYVKEEEGTGVVHQAPYFGAEDYRVCMDFNIIRKDSLPVCPVDASGCFTTEVTDFAGQYVKDADKSIIRTLKEQGRLLVATTFTHSYPFCWRSDTPLIYKAVPSWFVRVENMVDQLLRNNDLCYWVPELVREKRFGNWLKDARDWTISRNRYWGTPIPLWVSDDFEEVVCIGSVAELEELSGAKISDLHRESVDHLTIPSRCGKGSLHRISEVFDCWFESGSMPYAQVHYPFENKREFEDAFPADFIAEGIDQTRGWFYTLLVLATALFGQPPFKNVIVNGLVLASDGQKMSKRKKNYPDPVSIIQKYGADALRLYLINSPVVRAENLRFKEEGVRDVLKDVLLPWYNAYRFLIQNVLRLQKEEEIEFLYNENTVRESPNITDRWILSFMQSLIGFFETEMAAYRLYTVVPRLVKFVDILTNWYVRMNRRRLKGENGMEDCVMALETLFSVLLSLCRLMAPYTPFLTELMYQNLKVLIDPVSVQDKDTLSIHYLMLPRVREELIDKKTESAVSQMQSVIELGRVIRDRKTIPIKYPLKEIVVIHQDPEALKDIKSLEKYIIEELNVRKVTLSTDKNKYGIRLRAEPDHMVLGKRLKGAFKAVMTSIKQLSSEELEQFQKTGTIVVEGHELHDEDIRLMYTFDQATGGTAQFEAHSDAQALVLLDVTPDQSMVDEGMAREVINRIQKLRKKCNLVPTDEITVYYKAKSEGTYLNSVIESHTEFIFTTIKAPLKPYPVSPSDKVLIQEKTQLKGSELEITLTRGSSLPGPACAYVNLNICANGSEQGGVLLLENPKGDNRLDLLKLKSVVTSIFGVKNTELAVFHDETEIQNQTDLLSLSGKTLCVTAGSAPSLINSSSTLLCQYINLQLLNAKPQECLMGTVGTLLLENPLGQNGLTHQGLLYEAAKVFGLRSRKLKLFLNETQTQEITEDIPVKTLNMKTVYVSVLPTTADF
B2: methionyl-tRNA synthetase (MARS), endogenous (enzyme, UniProt P56192 1-900)
chain: MRLFVSDGVPGCLPVLAAAGRARGRAEVLISTVGPEDCVVPFLTRPKVPVLQLDSGNYLFSTSAICRYFFLLSGWEQDDLTNQWLEWEATELQPALSAALYYLVVQGKKGEDVLGSVRRALTHIDHSLSRQNCPFLAGETESLADIVLWGALYPLLQDPAYLPEELSALHSWFQTLSTQEPCQRAAETVLKQQGVLALRPYLQKQPQPSPAEGRAVTNEPEEEELATLSEEEIAMAVTAWEKGLESLPPLRPQQNPVLPVAGERNVLITSALPYVNNVPHLGNIIGCVLSADVFARYSRLRQWNTLYLCGTDEYGTATETKALEEGLTPQEICDKYHIIHADIYRWFNISFDIFGRTTTPQQTKITQDIFQQLLKRGFVLQDTVEQLRCEHCARFLADRFVEGVCPFCGYEEARGDQCDKCGKLINAVELKKPQCKVCRSCPVVQSSQHLFLDLPKLEKRLEEWLGRTLPGSDWTPNAQFITRSWLRDGLKPRCITRDLKWGTPVPLEGFEDKVFYVWFDATIGYLSITANYTDQWERWWKNPEQVDLYQFMAKDNVPFHSLVFPCSALGAEDNYTLVSHLIATEYLNYEDGKFSKSRGVGVFGDMAQDTGIPADIWRFYLLYIRPEGQDSAFSWTDLLLKNNSELLNNLGNFINRAGMFVSKFFGGYVPEMVLTPDDQRLLAHVTLELQHYHQLLEKVRIRDALRSILTISRHGNQYIQVNEPWKRIKGSEADRQRAGTVTGLAVNIAALLSVMLQPYMPTVSATIQAQLQLPPPACSILLTNFLCTLPAGHQIGTVSPLFQKLENDQIESLRQRFGGGQAKTSPKPAVVETVTTAKPQQIQALMDEVTKQGNIVRELKAQKADKNEVAAEVAKLLDLKKQLAVAEGKPPEAPKGKKKK
B3: glutaminyl-tRNA synthetase (QARS), endogenous (enzyme, UniProt P47897 1-775)
chain: MAALDSLSLFTSLGLSEQKARETLKNSALSAQLREAATQAQQTLGSTIDKATGILLYGLASRLRDTRRLSFLVSYIASKKIHTEPQLSAALEYVRSHPLDPIDTVDFERECGVGVIVTPEQIEEAVEAAINRHRPQLLVERYHFNMGLLMGEARAVLKWADGKMIKNEVDMQVLHLLGPKLEADLEKKFKVAKARLEETDRRTAKDVVENGETADQTLSLMEQLRGEALKFHKPGENYKTPGYVVTPHTMNLLKQHLEITGGQVRTRFPPEPNGILHIGHAKAINFNFGYAKANNGICFLRFDDTNPEKEEAKFFTAICDMVAWLGYTPYKVTYASDYFDQLYAWAVELIRRGLAYVCHQRGEELKGHNTLPSPWRDRPMEESLLLFEAMRKGKFSEGEATLRMKLVMEDGKMDPVAYRVKYTPHHRTGDKWCIYPTYDYTHCLCDSIEHITHSLCTKEFQARRSSYFWLCNALDVYCPVQWEYGRLNLHYAVVSKRKILQLVATGAVRDWDDPRLFTLTALRRRGFPPEAINNFCARVGVTVAQTTMEPHLLEACVRDVLNDTAPRAMAVLESLRVIITNFPAAKSLDIQVPNFPADETKGFHQVPFAPIVFIERTDFKEEPEPGFKRLAWGQPVGLRHTGYVIELQHVVKGPSGCVESLEVTCRRADAGEKPKAFIHWVSQPLMCEVRLYERLFQHKNPEDPTEVPGGFLSDLNLASLHVVDAALVDCSVALAKPFDKFQFERLGYFSVDPDSHQGKLVFNRTVTLKEDPGKV
B4: arginyl-tRNA synthetase (RARS), endogenous (enzyme, UniProt P54136 1-660)
chain: MDVLVSECSARLLQQEEEIKSLTAEIDRLKNCGCLGASPNLEQLQEENLKLKYRLNILRKSLQAERNKPTKNMINIISRLQEVFGHAIKAAYPDLENPPLLVTPSQQAKFGDYQCNSAMGISQMLKTKEQKVNPREIAENITKHLPDNECIEKVEIAGPGFINVHLRKDFVSEQLTSLLVNGVQLPALGENKKVIVDFSSPNIAKEMHVGHLRSTIIGESISRLFEFAGYDVLRLNHVGDWGTQFGMLIAHLQDKFPDYLTVSPPIGDLQVFYKESKKRFDTEEEFKKRAYQCVVLLQGKNPDITKAWKLICDVSRQELNKIYDALDVSLIERGESFYQDRMNDIVKEFEDRGFVQVDDGRKIVFVPGCSIPLTIVKSDGGYTYDTSDLAAIKQRLFEEKADMIIYVVDNGQSVHFQTIFAAAQMIGWYDPKVTRVFHAGFGVVLGEDKKKFKTRSGETVRLMDLLGEGLKRSMDKLKEKERDKVLTAEELNAAQTSVAYGCIKYADLSHNRLNDYIFSFDKMLDDRGNTAAYLLYAFTRIRSIARLANIDEEMLQKAARETKILLDHEKEWKLGRCILRFPEILQKILDDLFLHTLCDYIYELATAFTEFYDSCYCVEKDRQTGKILKVNMWRMLLCEAVAAVMAKGFDILGIKPVQRM
B5: aspartyl-tRNA synthetase (DARS), endogenous (enzyme, UniProt P14868 1-501)
chain: MPSASASRKSQEKPREIMDAAEDYAKERYGISSMIQSQEKPDRVLVRVRDLTIQKADEVVWVRARVHTSRAKGKQCFLVLRQQQFNVQALVAVGDHASKQMVKFAANINKESIVDVEGVVRKVNQKIGSCTQQDVELHVQKIYVISLAEPRLPLQLDDAVRPEAEGEEEGRATVNQDTRLDNRVIDLRTSTSQAVFRLQSGICHLFRETLINKGFVEIQTPKIISAASEGGANVFTVSYFKNNAYLAQSPQLYKQMCICADFEKVFSIGPVFRAEDSNTHRHLTEFVGLDIEMAFNYHYHEVMEEIADTMVQIFKGLQERFQTEIQTVNKQFPCEPFKFLEPTLRLEYCEALAMLREAGVEMGDEDDLSTPNEKLLGHLVKEKYDTDFYILDKYPLAVRPFYTMPDPRNPKQSNSYDMFMRGEEILSGAQRIHDPQLLTERALHHGIDLEKIKAYIDSFRFGAPPHAGGGIGLERVTMLFLGLHNVRQTSMFPRDPKRLTP
B6: ARS-interacting multifunctional protein 1 (AIMP1/p43), endogenous (protein, UniProt Q12904 1-312)
chain: MANNDAVLKRLEQKGAEADQIIEYLKQQVSLLKEKAILQATLREEKKLRVENAKLKKEIEELKQELIQAEIQNGVKQIPFPSGTPLHANSMVSENVIQSTAVTTVSSGTKEQIKGGTGDEKKAKEKIEKKGEKKEKKQQSIAGSADSKPIDVSRLDLRIGCIITARKHPDADSLYVEEVDVGEIAPRTVVSGLVNHVPLEQMQNRMVILLCNLKPAKMRGVLSQAMVMCASSPEKIEILAPPNGSVPGDRITFDAFPGEPDKELNPKKKIWEQIQPDLHTNDECVATYKGVPFEVKGKGVCRAQTMSNSGIK
B7: ARS-interacting multifunctional protein 2 (AIMP2/p38), endogenous (protein, UniProt Q13155 1-320)
chain: MPMYQVKPYHGGGAPLRVELPTCMYRLPNVHGRSYGPAPGAGHVQEESNLSLQALESRQDDILKRLYELKAAVDGLSKMIQTPDADLDVTNIIQADEPTTLTTNALDLNSVLGKDYGALKDIVINANPASPPLSLLVLHRLLCEHFRVLSTVHTHSSVKSVPENLLKCFGEQNKKQPRQDYQLGFTLIWKNVPKTQMKFSIQTMCPIEGEGNIARFLFSLFGQKHNAVNATLIDSWVDIAIFQLKEGSSKEKAAVFRSMNSALGKSPWLAGNELTVADVVLWSVLQQIGGCSVTVPANVQRWMRSCENLAPFNTALKLLK
B8: ARS-interacting multifunctional protein 3 (AIMP3/p18), endogenous (protein, UniProt O43324 1-174)
chain: MAAAAELSLLEKSLGLSKGNKYSAQGERQIPVLQTNNGPSLTGLTTIAAHLVKQANKEYLLGSTAEEKAIVQQWLEYRVTQVDGHSSKNDIHTLLKDLNSYLEDKVYLTGYNFTLADILLYYGLHRFIVDLTVQEKEKYLNVSRWFCHIQHYPGIRQHLSSVVFIKNRLYTNSH

Target: FLAG-tagged HIV-1 MA (HIV-1) (UniProt P12493)
Experiment: co-IP

Row | Molecule | binding
1 | lysyl-tRNA synthetase (LysRS, KARS), endogenous (from UniProt Q15046 1-597) (enzyme) | binds
2 | leucyl-tRNA synthetase (LARS), endogenous (from UniProt Q9P2J5 1-1176) (enzyme) | binds
3 | B1 | binds
4 | B2 | binds
5 | B3 | binds
6 | B4 | binds
7 | B5 | binds
8 | B6 | binds
9 | B7 | binds
10 | B8 | binds
